Measurements reported in patent US9250238B2, “Pathogen detection” (priority 2010, dated 2016).
Some of these results come from one statement about several compounds together.

Tested on: pathogens detected using PathoChip technology
Experiment: PathoChip pair-wise cross-reactivity of ligands
Format: binding

Q: For heparin, which “pair-wise cross-reactivity, difference in limit of detection” value is on record?
A: ≥ 1000 fold
